At least one structure is not confirmed: it was looked up by name or label, or the drawing left a doubt.
Tests used:
Type in all cases: cell-based
[1] = system: Neutrophils purified from human peripheral blood; experiment: Human Neutrophil Transwell Migration Assay; conditions: 37° C., 45 minutes, % of the maximum migration possible
From the text: Neutrophils were purified from human peripheral blood utilizing PolymorphPrep. Red blood cells were lysed with a lysis buffer and the cells were washed, counted and resuspended in assay buffer. Neutrophils (approximately 50,000 to 100,000 in number) were placed over 5-micon pore sized transwell plates in 24-well format with test compounds in the bottom chamber of each well. A negative control of media alone in the bottom chamber was set up in triplicate. A positive control where the neutrophils were added directly to the bottom well was set up in triplicate.
The plates were incubated at 37° C. for 45 minutes to allow for migration. After this time, migration was confirmed visually and then an aliquot (⅙^th of total cells) from each well was taken for ATP detection via luminescence with ATPlite (PerkinElmer) to quantify the number of migrated cells. The averaged reading for random migration detected in the negative control was subtracted from all readings to obtain the corrected migration number. These numbers were then divided by the averaged reading from the positive control to get the % Neutrophil Migration of the maximum migration possible.

A. fumigatus MYA-4609 = experiment: MEC assay (Example 31); conditions: RPMI pH 7.0, 35° C., 24-48 hr
Protocol: (§1) The test organisms consisted of strains from the Micromyx collection. Reference isolates were originally received from the American Type Culture Collection (ATCC; Manassas, Va.). Organisms received at Micromyx were initially streaked for isolation on Sabouraud dextrose or potato dextrose agar. Colonies were picked by swab from the medium and resuspended in the appropriate broth containing cryoprotectant. The suspensions were aliquoted into cryogenic vials and maintained at −80° C. Prior to testing, Candida isolates were streaked from the frozen vials on Sabouraud dextrose agar. The yeast isolates were incubated at overnight at 35° C. before use. The fungal isolates were incubated at least 7 days on Sabouraud dextrose agar slants at 35° C. before harvesting.
(§2) Isolates were tested in RPMI medium (Catalog No. SH30011.04; Lot No. AWA92121B; HyClone Labs, Logan, Utah) which was prepared according to CLSI guidelines. The pH of the medium was adjusted to 7.0 with 1 N NaOH. The medium was sterile filtered using a 0.2 μm PES filter and stored at 4° C. until used.
(§3) The MIC assay method employed automated liquid handlers to conduct serial dilutions and liquid transfers. Automated liquid handlers included the Multidrop 384 (Labsystems, Helsinki, Finland), Biomek 2000 and Biomek FX (Beckman Coulter, Fullerton Calif.). The wells in columns 2-12 in standard 96-well microdilution plates (Costar 3795) were filled with 150 μl of the correct diluent (50% DMSO for investigational compounds, 100% DMSO for comparator compounds). These would become the mother plates' from which ‘daughter’ or test plates would be prepared. Stocks were diluted to 40× the desired top concentration in the test plates in the indicated solvent, and 300 μL of the 40× stock was dispensed into the appropriate well in Column 1 of the mother plates. The Biomek 2000 was used to make serial serial 2-fold dilutions through Column 11 in the “mother plate”. The wells of Column 12 contained no drug and served as the organism growth control wells.
(§4) The daughter plates were loaded with 185 μL per well of RPMI described above using the Multidrop 384. The daughter plates were prepared using the Biomek FX which transferred 5 μL of drug solution from each well of a mother plate to the corresponding well of the daughter plate in a single step.
(§5) A standardized inoculum of each organism was prepared. For Candida, colonies were picked from the streak plate and a suspension was prepared in RPMI medium equal to a 0.5 McFarland standard, then diluted 1:100 in RPMI and transferred to compartments of sterile reservoirs divided by length (Beckman Coulter). For the Aspergillus isolates, previously prepared and quantitated suspensions were used to make dilutions in RPMI to reach 20× the final concentration. These dilutions were also transferred to compartments of sterile reservoirs divided by length (Beckman Coulter). The final concentration of the Aspergillus isolates was approximately 0.2-2.5×10^4 CFU/mL.
(§6) The Biomek 2000 was used to inoculate the plates. Daughter plates were placed on the Biomek 2000 work surface reversed so that inoculation took place from low to high drug concentration. The Biomek 2000 delivered 10 μL of standardized inoculum into each well. Thus, the wells of the daughter plates ultimately contained 185 μL of RPMI, 5 μL of drug solution, and 10 μL of inoculum. The final concentration of DMSO in the test well was 2.5% for the evaluated comparators and 1.25% for the investigational agents.
(§7) Plates were stacked 3 high, covered with a lid on the top plate, placed into plastic bags, and incubated at 35° C. for approximately 24-48 hr prior to reading. Plates were read when inoculum was confluent in growth wells. Plates were viewed from the bottom using a plate viewer. […] MICs were read where visible growth of the organism was inhibited. MECs were read where the growth shifted to a small, rounded, compact hyphal form as compared to the hyphal growth seen in the growth control well.

A. fumigatus MYA-3626 = experiment: MEC assay (Example 31); conditions: RPMI pH 7.0, 35° C., 24-48 hr
Protocol: as §1, §2, §3, §4, §5, §6, §7

A. fumigatus ATCC 13073 = experiment: MEC assay (Example 31); conditions: RPMI pH 7.0, 35° C., 24-48 hr
Protocol: as §1, §2, §3, §4, §5, §6, §7

A. fumigatus MX 5944 = experiment: MEC assay (Example 31); conditions: RPMI pH 7.0, 35° C., 24-48 hr
Protocol: as §1, §2, §3, §4, §5, §6, §7

A. flavus MX 5948 = experiment: MEC assay (Example 31); conditions: RPMI pH 7.0, 35° C., 24-48 hr
Protocol: as §1, §2, §3, §4, §5, §6, §7

In the case of `CC[C@H](C)C[C@H](C)CCCCCCCCC(=O)N[C@H]1C[C@@H](O)[C@@H](NCCN)NC(=O)[C@@H]2[C@@H](O)CCN2C(=O)[C@H]([C@H](O)CCNC(=O)[C@H](CCCCN)NC=O)NC(=O)[C@H]([C@H](O)[C@@H](O)c2ccc(O)cc2)NC(=O)[C@@H]2C[C@@H](O)CN2C(=O)[C@H]([C@@H](C)O)NC1=O` [Compound 25], the “% Neutrophil Migration” value ([1]; conc 0.001 μg/mL) was −0.9%, the “% Neutrophil Migration” value ([1]; conc 0.01 μg/mL) was −3.8% and the “% Neutrophil Migration” value ([1]; conc 0.1 μg/mL) was −4.4%. The “% Neutrophil Migration” value ([1]; conc 1 μg/mL) was −6.4%, the “% Neutrophil Migration” value ([1]; conc 10 μg/mL) was −6.8% and the MEC (A. fumigatus MYA-4609) was “≦0.03 μg/mL”. The MEC (A. fumigatus MYA-3626) was “≦0.03 μg/mL”, the MEC (A. fumigatus ATCC 13073) was “≦0.03 μg/mL” and the MEC (A. fumigatus MX 5944) was “≦0.03 μg/mL”. For the same compound, the MEC (A. flavus MX 5948) was “≦0.03 μg/mL”.
In the case of `CC[C@H](C)C[C@H](C)CCCCCCCCC(=O)N[C@H]1C[C@@H](O)[C@@H](NCCN)NC(=O)[C@@H]2[C@@H](O)CCN2C(=O)[C@H]([C@H](O)CCNC(=O)CCC(=O)NCCOCCOCCNC(=O)[C@H](Cc2ccccc2)NC(=O)[C@H](CC(C)C)NC(=O)[C@H](CCSC)NC=O)NC(=O)[C@H]([C@H](O)[C@@H](O)c2ccc(O)cc2)NC(=O)[C@@H]2C[C@@H](O)CN2C(=O)[C@H]([C@@H](C)O)NC1=O` [Compound 16], the MEC (A. fumigatus MYA-4609) was 0.25 µg/mL, the MEC (A. fumigatus MYA-3626) was 0.25 µg/mL and the MEC (A. fumigatus ATCC 13073) was 0.25 µg/mL. The MEC (A. fumigatus MX 5944) was 0.25 µg/mL and the MEC (A. flavus MX 5948) was 0.25 µg/mL.
With `CC[C@H](C)C[C@H](C)CCCCCCCCC(=O)N[C@H]1C[C@@H](O)[C@@H](NCCNC(=O)CCNC(=O)[C@H](Cc2ccccc2)NC(=O)[C@H](CC(C)C)NC(=O)[C@H](CCSC)NC(=O)OCC(C)C)NC(=O)[C@@H]2[C@@H](O)CCN2C(=O)[C@H]([C@H](O)CCN)NC(=O)[C@H]([C@H](O)[C@@H](O)c2ccc(O)cc2)NC(=O)[C@@H]2C[C@@H](O)CN2C(=O)[C@H]([C@@H](C)O)NC1=O` [Compound 6] the MEC (A. fumigatus MYA-4609) was 1 µg/mL, the MEC (A. fumigatus MYA-3626) was 2 µg/mL and the MEC (A. fumigatus ATCC 13073) was 1 µg/mL. For the same compound, the MEC (A. fumigatus MX 5944) was 2 µg/mL and the MEC (A. flavus MX 5948) was 0.5 µg/mL.
With `CC[C@H](C)C[C@H](C)CCCCCCCCC(=O)N[C@H]1C[C@@H](O)[C@@H](NCCN)NC(=O)[C@@H]2[C@@H](O)CCN2C(=O)[C@H]([C@H](O)CCNC(=O)CCNC(=O)[C@H](Cc2ccccc2)NC(=O)[C@H](CC(C)C)NC(=O)[C@H](CCSC)NC(=O)OCC(C)C)NC(=O)[C@H]([C@H](O)[C@@H](O)c2ccc(O)cc2)NC(=O)[C@@H]2C[C@@H](O)CN2C(=O)[C@H]([C@@H](C)O)NC1=O` [Compound 5] the MEC (A. fumigatus MYA-4609) was 1 µg/mL, the MEC (A. fumigatus MYA-3626) was 1 µg/mL and the MEC (A. fumigatus ATCC 13073) was 1 µg/mL. It also gave an MEC (A. fumigatus MX 5944) of 1 µg/mL and an MEC (A. flavus MX 5948) of 1 µg/mL.

Source: patent publication US20160213742A1, “COMPOSITIONS AND METHODS FOR THE TREATMENT OF FUNGAL INFECTIONS” (priority 2013, published 2016)
